Experimental data: article PMC12068301
Like-named read-outs stand apart in the source and are kept apart here. Results are given in words; binding and its absence hold for the method and conditions named. In cells and extracts the contact can be indirect. Here binding means that the protein was enriched with, or labelled near, the bait; the list need not be complete.

Sequences of proteins named here, by UniProt entry; tags and fusion partners are left off.
UniProt Q6A4J8: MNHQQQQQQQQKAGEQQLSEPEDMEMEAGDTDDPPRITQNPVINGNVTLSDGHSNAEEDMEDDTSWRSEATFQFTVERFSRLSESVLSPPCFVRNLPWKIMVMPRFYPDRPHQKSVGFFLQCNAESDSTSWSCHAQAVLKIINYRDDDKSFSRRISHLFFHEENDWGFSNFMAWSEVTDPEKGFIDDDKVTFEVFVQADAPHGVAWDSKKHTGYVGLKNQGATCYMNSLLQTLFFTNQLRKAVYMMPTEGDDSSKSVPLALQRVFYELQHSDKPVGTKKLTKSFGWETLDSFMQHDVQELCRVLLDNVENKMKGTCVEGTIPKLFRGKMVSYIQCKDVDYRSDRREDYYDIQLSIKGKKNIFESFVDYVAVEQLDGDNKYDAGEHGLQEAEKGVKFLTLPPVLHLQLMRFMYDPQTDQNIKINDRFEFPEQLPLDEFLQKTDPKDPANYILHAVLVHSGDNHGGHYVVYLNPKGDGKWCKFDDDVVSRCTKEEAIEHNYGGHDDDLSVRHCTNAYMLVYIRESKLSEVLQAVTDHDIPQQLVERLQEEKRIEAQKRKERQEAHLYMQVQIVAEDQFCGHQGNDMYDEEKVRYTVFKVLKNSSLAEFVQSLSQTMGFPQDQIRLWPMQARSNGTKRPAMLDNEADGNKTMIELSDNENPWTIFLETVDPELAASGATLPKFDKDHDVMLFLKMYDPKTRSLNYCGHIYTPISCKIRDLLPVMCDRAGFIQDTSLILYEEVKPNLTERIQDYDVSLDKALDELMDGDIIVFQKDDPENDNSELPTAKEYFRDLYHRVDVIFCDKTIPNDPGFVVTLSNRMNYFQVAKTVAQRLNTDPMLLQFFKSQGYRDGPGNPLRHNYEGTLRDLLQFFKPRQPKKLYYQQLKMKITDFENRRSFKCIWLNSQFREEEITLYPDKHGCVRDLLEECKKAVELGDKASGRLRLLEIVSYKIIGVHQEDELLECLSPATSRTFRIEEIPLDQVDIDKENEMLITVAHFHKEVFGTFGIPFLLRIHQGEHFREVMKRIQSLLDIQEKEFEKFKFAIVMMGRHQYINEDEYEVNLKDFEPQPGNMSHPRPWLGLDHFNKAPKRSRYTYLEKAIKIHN
UniProt P31266: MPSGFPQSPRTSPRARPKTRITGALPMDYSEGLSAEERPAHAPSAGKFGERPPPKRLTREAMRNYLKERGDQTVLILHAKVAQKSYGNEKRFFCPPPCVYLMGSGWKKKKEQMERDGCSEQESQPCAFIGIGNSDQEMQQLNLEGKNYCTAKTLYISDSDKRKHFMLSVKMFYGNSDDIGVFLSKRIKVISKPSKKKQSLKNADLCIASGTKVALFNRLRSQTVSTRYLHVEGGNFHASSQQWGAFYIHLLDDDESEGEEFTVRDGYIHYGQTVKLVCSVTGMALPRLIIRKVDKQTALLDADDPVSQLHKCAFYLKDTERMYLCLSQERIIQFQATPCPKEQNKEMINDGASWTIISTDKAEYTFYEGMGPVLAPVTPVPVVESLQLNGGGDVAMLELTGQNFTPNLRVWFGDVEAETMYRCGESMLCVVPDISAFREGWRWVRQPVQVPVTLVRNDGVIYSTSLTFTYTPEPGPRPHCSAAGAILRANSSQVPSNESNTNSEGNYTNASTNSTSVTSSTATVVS

B1: UFL1 (enzyme, UniProt Q8CCJ3 1-793)
chain: MADAWEEIRRLAADFQRAQFAESTQRLSERNCIEIVNKLISQKQLEVVHTLDGKEYITPAQISKEMRDELHVRGGRVNIVDLQQVINVDLTHIESRVSDIIKSEKHVQMVLGQLIDENYLDQLSEEVNDKLQESGQVTVSELCKAYDLPGDFLTQALTQRLGRIINGHLDLDNRGVIFTEAFVARHKARIRGLFSAITRPTPVNSLVSKYGFQEQLLYSVLEDLVSTGRLRGTVVGGRQDKAVFVPDIYSRTQSTWVDSFFRQNGYLEFDALSRLGIPDAVNYIKKRYKNTQLLFLKATCVGQGLVDQVEASVEEAISSGTWVDISPLLPSSLSVEDAAMLLQQVMRPFGKLASAIVFSDTVVVSEKFITDCTGLFSERMHQKAEKEMKNNPVHLITEEDLKQISILESVNTSKKDKKDERRKKATEGSGSVRGGGGGNAREYKIKKTKKKGRKDEDSDDESQSSHGGKKKPDITFMFQDEIEDCLRKHIQDAPEEFISELAEYLIKPLNKMYLEVVRSVFMSSTSASGTGRKRTIKDLQEEVSNLYNNIRLFEKGMKYFADDTQTALTKHLLKTVCTDITNLMFNFLASDFLMAVEEPAAITSDIRKKILSKLTEETKVALTKLHNSLNEKSIEDFLSCLDSATEACDIMVKKGDKKRERQILFQHRQALCEQLKVTEDPALILHLTAVLLFQLSTHSMLHAPGRCVPQIIAFLHSKIPEDQHTLLVKYQGLVVKQLVSQNKKTGQGEDPSSDELDKEQHDVTNATRKELQELSLSIKDLVLKSRKSSVTEE

Key:
[1] = molecular target: USP7 (mouse (endogenous in primary CD3+ T cells)) (UniProt Q6A4J8); test: affinity purification with mass spectrometry; proteins bound to USP7 isolated with anti-USP7 antibody from primary carcinoma-infiltrating CD3+ T cells, then mass spectrometry
[2] = molecular target: USP7 (mouse (endogenous in primary CD3+ T cells)) (UniProt Q6A4J8); test: as above; remark: listed apart in the source

binding [1]	binding [2]	Molecule
binds		RBPJ (from UniProt P31266 1-526)
	binds	B1
